# Test results published in US20210269859A1, “PATHOGEN AND ANT[…]” (priority 2014, published 2021).
# For at least one compound, name, drawing or mass did not settle the structure.
# Tested on: carbenicillin resistant E. coli K12 MG1655 strain
# Test: Resazurin reduction method, 100 μl total reaction volume
# Assay type: cell-based
# Conditions: 50 μg/ml kanamycin or 100 μg/ml carbenicillin, 5×10^2 to 5×10^5 cells, resazurin 20, 40 or 80 μM, 37° C., 0-6 hrs
# Method: A single E. coli bacterial colony (E. coli K12 MG1655) known to be resistant to kanamycin and a single E. coli bacterial colony (E. coli K12 MG1655) known to be resistant to carbenicillin were separately cultured in LB media for 12-15 hrs until the bacterial cells were in mid-log phase (about 10^8 cells/nil). The culture was then serial diluted to 5×10^2, 5×10^3, 5×10^4, and 5×10^5 cells in LB media containing either 50 μg/ml kanamycin or 100 μg/ml carbenicillin. Resazurin was added to each dilution at a final concentration of 20, 40, or 80 μM in a total reaction volume of 100 μl. Each diluted culture was cultured at 37° C. and fluorescence was measured at wavelength 590 nm at 0, 1, 2, 3, 4, 5, and 6 hrs from the start of culture in the presence of the antibiotic.
smiles,measurement,value
NC[C@H]1O[C@H](O[C@H]2[C@H](O)[C@@H](O[C@H]3O[C@H](CO)[C@@H](O)[C@H](N)[C@H]3O)[C@H](N)C[C@@H]2N)[C@H](O)[C@@H](O)[C@@H]1O [kanamycin],growth of the strain in the presence of the antibiotic (fluorescence at 590 nm),slow or no growth
